No constants are given. Whether binding was seen depends on the method and setting. Binding seen in cells or lysates may run through a third protein. Some results given as binding are weak or reduced against the parent protein; the word gives no strength. Sequences can lack the tags named with a protein.
Key:
[1] = molecular target: T1, periostin (human) (UniProt Q15063); experiment: HaloTag pull-down from stable NINJ2-HaloTag MKN-74 cells, immunoblotting (co-IP)
T1 sequence: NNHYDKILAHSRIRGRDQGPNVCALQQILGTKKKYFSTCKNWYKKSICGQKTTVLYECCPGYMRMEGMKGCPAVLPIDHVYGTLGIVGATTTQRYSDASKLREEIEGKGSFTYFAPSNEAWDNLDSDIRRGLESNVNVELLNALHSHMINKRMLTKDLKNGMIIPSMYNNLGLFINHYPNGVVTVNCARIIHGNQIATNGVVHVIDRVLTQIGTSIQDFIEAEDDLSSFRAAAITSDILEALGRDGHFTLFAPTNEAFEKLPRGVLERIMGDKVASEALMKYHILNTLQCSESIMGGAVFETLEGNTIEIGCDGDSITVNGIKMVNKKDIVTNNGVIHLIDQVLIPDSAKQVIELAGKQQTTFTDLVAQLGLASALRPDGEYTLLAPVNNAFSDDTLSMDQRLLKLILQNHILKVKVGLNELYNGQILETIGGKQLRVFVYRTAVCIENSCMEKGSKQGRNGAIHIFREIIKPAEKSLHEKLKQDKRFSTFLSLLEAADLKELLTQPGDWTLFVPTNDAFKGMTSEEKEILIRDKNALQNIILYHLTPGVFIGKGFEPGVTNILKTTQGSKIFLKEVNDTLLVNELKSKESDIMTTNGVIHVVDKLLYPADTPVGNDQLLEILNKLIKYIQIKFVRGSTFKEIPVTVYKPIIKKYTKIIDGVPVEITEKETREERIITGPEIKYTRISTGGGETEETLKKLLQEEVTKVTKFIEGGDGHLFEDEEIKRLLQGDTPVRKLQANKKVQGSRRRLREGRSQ

[2] = molecular target: T1, periostin (human); experiment: HaloTag pull-down of the NINJ2 complex, LC-MS/MS

B1: NINJ2-HaloTag (NINJ2, nerve injury-induced protein 2; Ninjurin 2, with HaloTag, stably expressed in MKN-74 cells) (protein, human, UniProt Q9NZG7 1-142, looked up, not shown: large carriers)
chain: MESARENIDLQPGSSDPRSQPINLNHYATKKSVAESMLDVALFMSNAMRLKAVLEQGPSSHYYTTLVTLISLSLLLQVVIGVLLVVIARLNLNEVEKQWRLNQLNNAATILVFFTVVINVFITAFGAHKTGFLAARASRNPL
binding [1]: binds
binding [2]: binds

From patent US20240201168A1
